Laboratory results from paper doi:10.1101/525576.
Results are given in words; binding and its absence hold for the method and conditions named. Binding seen in cells or lysates may run through a third protein. Here binding means that the protein was enriched with, or labelled near, the bait; the list need not be complete.

The chains behind the UniProt entries cited, without tags or fusion partners. Where a name states a change or a piece, a line headed by the entry shows the natural chain unless it says otherwise.
UniProt Q03181: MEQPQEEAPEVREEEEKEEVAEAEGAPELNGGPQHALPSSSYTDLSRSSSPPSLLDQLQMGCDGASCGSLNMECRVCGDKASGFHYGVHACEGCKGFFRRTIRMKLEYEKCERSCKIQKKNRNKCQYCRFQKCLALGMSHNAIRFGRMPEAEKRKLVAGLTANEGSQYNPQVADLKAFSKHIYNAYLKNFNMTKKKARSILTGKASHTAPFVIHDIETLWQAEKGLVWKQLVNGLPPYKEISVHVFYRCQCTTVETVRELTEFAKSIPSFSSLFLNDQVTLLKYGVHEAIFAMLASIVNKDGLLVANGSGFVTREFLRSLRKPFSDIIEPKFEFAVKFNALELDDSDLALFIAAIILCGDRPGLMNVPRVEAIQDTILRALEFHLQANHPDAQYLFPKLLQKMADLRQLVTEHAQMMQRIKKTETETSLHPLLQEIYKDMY
UniProt O75376: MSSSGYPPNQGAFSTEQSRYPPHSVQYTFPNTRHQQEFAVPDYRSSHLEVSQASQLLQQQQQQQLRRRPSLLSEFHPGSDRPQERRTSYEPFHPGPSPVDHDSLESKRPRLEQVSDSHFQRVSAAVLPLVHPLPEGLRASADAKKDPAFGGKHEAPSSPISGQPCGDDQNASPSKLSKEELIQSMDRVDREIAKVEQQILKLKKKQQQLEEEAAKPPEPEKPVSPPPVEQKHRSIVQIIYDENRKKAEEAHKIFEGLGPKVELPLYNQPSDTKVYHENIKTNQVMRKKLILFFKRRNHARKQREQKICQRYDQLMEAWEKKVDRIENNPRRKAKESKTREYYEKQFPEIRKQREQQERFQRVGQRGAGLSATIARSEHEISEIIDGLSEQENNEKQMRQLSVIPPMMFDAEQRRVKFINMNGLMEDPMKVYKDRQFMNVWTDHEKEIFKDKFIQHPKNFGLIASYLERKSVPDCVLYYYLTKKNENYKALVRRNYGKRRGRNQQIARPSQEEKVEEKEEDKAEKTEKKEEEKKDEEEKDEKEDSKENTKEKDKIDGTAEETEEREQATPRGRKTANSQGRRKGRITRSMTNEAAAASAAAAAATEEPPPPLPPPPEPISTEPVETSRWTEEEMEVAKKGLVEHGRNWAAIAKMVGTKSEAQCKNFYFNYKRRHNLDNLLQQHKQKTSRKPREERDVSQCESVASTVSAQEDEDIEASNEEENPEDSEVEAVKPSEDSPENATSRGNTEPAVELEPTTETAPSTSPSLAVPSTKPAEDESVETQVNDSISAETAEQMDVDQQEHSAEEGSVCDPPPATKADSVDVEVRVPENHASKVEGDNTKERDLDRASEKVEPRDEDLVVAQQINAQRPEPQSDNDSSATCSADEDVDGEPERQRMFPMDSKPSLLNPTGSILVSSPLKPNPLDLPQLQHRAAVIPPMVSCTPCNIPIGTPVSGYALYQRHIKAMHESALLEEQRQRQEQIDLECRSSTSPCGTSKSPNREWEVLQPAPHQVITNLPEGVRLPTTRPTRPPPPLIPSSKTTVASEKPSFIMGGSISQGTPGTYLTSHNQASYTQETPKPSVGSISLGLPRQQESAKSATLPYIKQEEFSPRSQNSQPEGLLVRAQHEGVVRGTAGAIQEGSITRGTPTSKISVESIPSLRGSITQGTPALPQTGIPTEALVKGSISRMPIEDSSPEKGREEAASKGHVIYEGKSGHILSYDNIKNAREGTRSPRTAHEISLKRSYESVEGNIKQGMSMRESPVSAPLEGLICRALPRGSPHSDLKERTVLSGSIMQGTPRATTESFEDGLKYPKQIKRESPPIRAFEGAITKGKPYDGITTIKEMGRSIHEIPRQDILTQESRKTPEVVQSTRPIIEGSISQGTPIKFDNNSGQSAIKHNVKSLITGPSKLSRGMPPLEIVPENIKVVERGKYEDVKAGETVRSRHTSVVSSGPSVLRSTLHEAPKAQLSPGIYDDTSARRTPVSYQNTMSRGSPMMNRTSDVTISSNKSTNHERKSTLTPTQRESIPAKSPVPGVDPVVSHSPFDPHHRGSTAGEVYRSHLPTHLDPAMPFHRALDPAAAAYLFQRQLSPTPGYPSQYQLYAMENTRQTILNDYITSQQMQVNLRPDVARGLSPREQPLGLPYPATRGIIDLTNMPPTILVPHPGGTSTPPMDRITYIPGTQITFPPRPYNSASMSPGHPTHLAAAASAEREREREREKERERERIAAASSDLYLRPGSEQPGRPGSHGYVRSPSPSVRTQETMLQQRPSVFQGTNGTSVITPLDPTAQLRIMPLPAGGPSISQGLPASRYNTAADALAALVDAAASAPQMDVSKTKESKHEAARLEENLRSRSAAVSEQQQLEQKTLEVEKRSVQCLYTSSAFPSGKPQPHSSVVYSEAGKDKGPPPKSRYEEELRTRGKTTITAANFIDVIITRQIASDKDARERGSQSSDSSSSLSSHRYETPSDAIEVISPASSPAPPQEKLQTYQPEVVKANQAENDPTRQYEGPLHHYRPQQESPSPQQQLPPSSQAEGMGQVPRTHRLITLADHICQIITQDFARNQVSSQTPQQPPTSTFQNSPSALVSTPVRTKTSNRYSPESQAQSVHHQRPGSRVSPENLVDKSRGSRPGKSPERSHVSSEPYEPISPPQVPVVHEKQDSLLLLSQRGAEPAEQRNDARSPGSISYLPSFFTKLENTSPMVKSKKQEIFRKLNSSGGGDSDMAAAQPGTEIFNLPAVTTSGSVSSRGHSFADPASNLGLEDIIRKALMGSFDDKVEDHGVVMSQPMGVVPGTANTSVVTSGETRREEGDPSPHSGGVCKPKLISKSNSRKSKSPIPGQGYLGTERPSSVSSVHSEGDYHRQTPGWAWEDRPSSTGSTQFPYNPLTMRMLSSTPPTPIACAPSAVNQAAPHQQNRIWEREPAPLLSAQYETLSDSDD

Biological target: PPARβ/δ (peroxisome proliferator activated receptor β/δ) (human (endogenous in MDA-MB231-luc2)) (UniProt Q03181)
Assay: affinity purification with mass spectrometry

binding: binds
Substance: NCOR (nuclear receptor corepressor) (from UniProt O75376 1-2440)
